Binding signal data for 42 sequences are collected here from paper PMC7819943, “Rice protein-binding microarrays: a tool to detect cis-acting elements near promoter regions in rice”.

Protein sequences, listed by entry. Tags and fused reporters are not part of them.
UniProt Q0JBA9, entry or part of it: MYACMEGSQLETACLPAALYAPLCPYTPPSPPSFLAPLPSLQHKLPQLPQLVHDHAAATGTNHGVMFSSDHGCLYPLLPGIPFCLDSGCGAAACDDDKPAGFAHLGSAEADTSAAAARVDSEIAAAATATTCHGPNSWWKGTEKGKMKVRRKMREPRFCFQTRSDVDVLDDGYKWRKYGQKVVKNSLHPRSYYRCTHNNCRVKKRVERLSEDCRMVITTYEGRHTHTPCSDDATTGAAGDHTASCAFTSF

This is one part of the list.

The assay deals with OsWRKY34 (Oryza sativa, UniProt Q0JBA9 1-250). The assay can be described thus: protein-binding microarray (RPBM); PBS, 2% BSA, 51.3 ng/ul salmon testes DNA, 50 uM zinc acetate, 200 nM TF, 25 C, 1 h; high values mean tight binding. As to conditions: protein: recombinant; tags: N-terminal polyhistidine and DsRed monomer fusion (pET32a); label: CyDye5-dUTP incorporated in the synthesized complementary strand; 3' TTTTT single-stranded linker to array surface; dsDNA, one strand shown. In short, it runs like this:
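A custom Agilent array was converted to double-stranded form by primer extension with Cy5-dUTP and blocked with 2% BSA. Protein at 200 nM in PBS with 2% BSA, salmon testes DNA and 50 µM zinc acetate was applied for 1 h at 25 °C, followed by washing. The proteins were polyhistidine–DsRed N-terminal fusions of transcription factors, expressed in E. coli BL21-CodonPlus and Ni–NTA-purified. The binding signal is per-feature fluorescence intensity (arbitrary units) from an Axon 4000B scanner.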
As for “TTTAAACCGCTGGGTCTTTTTTACTTGCGAGCTCAACTGTCGGAGTCACCTAGTGCAG”, the binding signal is 8140 fluorescence intensity (a.u.).

For the sequence “TACTTTTTTATAAATACTCTTTTCGTCTCATTTTAAGTACCGGAGTCACCTAGTGCAG”, the binding signal is 10300 fluorescence intensity (a.u.).

In the case of “ACTTTTTAAAACATGTTTGACCGTTCATCTTATTCAAAAACGGAGTCACCTAGTGCAG”, the binding signal is 8410 fluorescence intensity (a.u.).

Regarding “CCACTCCTGTCCTGTCATCTTGTACACTATCGCGTTGCTGCGGAGTCACCTAGTGCAG”, the binding signal is 9040 fluorescence intensity (a.u.).

Regarding “TCCTTGTTTGGGTTGGGTGCGGACTGGGGAAGACGACACGCGGAGTCACCTAGTGCAG”, the binding signal is 14100 fluorescence intensity (a.u.).

With “ATTGCAACAGTTGCCGCCATGTCTTTCACGCGCCTTGCTACGGAGTCACCTAGTGCAG”, the binding signal is 9860 fluorescence intensity (a.u.).

As for “ATAACACATATGTCTCTCTCTATATATGGTCTCATGGTTACGGAGTCACCTAGTGCAG”, the binding signal is 10800 fluorescence intensity (a.u.).

On to “CGTCAAGAGTCGTTGTTTCGTGTCGTCTATATCTCTCCGCCGGAGTCACCTAGTGCAG”, for which the binding signal is 9770 fluorescence intensity (a.u.).

As for “TGTTGATGGGTAGGTTTTTTCTAAGATGGAAGACATTAATCGGAGTCACCTAGTGCAG”, the binding signal is 8170 fluorescence intensity (a.u.).

Consider “AACCCAACTCCACCACCGATCACTTGACTCTCACGCACACCGGAGTCACCTAGTGCAG”, for which the binding signal is 13700 fluorescence intensity (a.u.).

In the case of “CCTGTTTTTTCTTTCCGTTTTTATTTGAATTCCCTTTTGACGGAGTCACCTAGTGCAG”, the binding signal was 9910 fluorescence intensity (a.u.).

Consider “ATCTCTTAGTTCTGCCATCAGCCACATAGCTTATTTTTAGCGGAGTCACCTAGTGCAG”, for which the binding signal is 11300 fluorescence intensity (a.u.).

With “TCTTCCTTTTCCATTATCATGAGCATGTCTTCCCCAAAACCGGAGTCACCTAGTGCAG”, the binding signal is 8060 fluorescence intensity (a.u.).

Consider “TGGGCCGCCTACCCATCGTCGCCGTCGCGTTTGCCATCCGCGGAGTCACCTAGTGCAG”, for which the binding signal was 9770 fluorescence intensity (a.u.).

Consider “CCATTTCCATTTCCATTTGTCAGTATTACATAGGCCCTGTCGGAGTCACCTAGTGCAG”, for which the binding signal was 8950 fluorescence intensity (a.u.).

On to “GACATTCGCTACTTCACCGACTCAACGATGTACTCCACCGCGGAGTCACCTAGTGCAG”, for which the binding signal was 8920 fluorescence intensity (a.u.).

For “GCAATTGCCCGTCACGCCTCGTCTTCCTCGTCGTCTTGCACGGAGTCACCTAGTGCAG”, the binding signal was 13500 fluorescence intensity (a.u.).

In the case of “ACTAATATGTGGGCCCATGATTTTTTTATTTTTCTGGATCCGGAGTCACCTAGTGCAG”, the binding signal is 9410 fluorescence intensity (a.u.).

Consider “TATACTTATTTTTCTATTTTTTAGGGTAACTATATATTTTCGGAGTCACCTAGTGCAG”, for which the binding signal is 8230 fluorescence intensity (a.u.).

On to “TGCTCTAACAATGGCCATGCCTCCCGGCCTCACCTTCTTCCGGAGTCACCTAGTGCAG”, for which the binding signal was 9510 fluorescence intensity (a.u.).

“GTTGGGTGGGGAGCAGGCGGTGCGGTTCGTCGTCGCTGACCGGAGTCACCTAGTGCAG”: the binding signal is 8140 fluorescence intensity (a.u.).

With “ACGGTTTGATGGAGTTTAGGGGTGCACATTTCTGGTTTTACGGAGTCACCTAGTGCAG”, the binding signal is 8040 fluorescence intensity (a.u.).

For “GGTGTCACATTGGATGTTTGACCAAATGTCGGAAGGAGTTCGGAGTCACCTAGTGCAG”, the binding signal was 8410 fluorescence intensity (a.u.).

“CTACGGTGGAGGCCCAGCCCGGATTCTATTGCTCTCGTTTCGGAGTCACCTAGTGCAG”: the binding signal is 8160 fluorescence intensity (a.u.).

For “GGGTGATTGAATCCTTGTCATCTAGTGTAAGGCATCTTTCCGGAGTCACCTAGTGCAG”, the binding signal was 8240 fluorescence intensity (a.u.).

Consider “GGGAGAGGTGGAGACCAGGAGGTGGGGTGGCGGAGGTCATCGGAGTCACCTAGTGCAG”, for which the binding signal was 14300 fluorescence intensity (a.u.).

Take “CCACCTTTTCTCTCCACTGCACAGCAACTTCATCAGTCCCCGGAGTCACCTAGTGCAG”: the binding signal was 10600 fluorescence intensity (a.u.).

“ACATGGGAATTTTGGTGGGATGGGGATGGGGATGGGGAATCGGAGTCACCTAGTGCAG”: the binding signal is 34000 fluorescence intensity (a.u.).

“CACAATCTGCACGCCATATCTGACTACACATATACAACGCCGGAGTCACCTAGTGCAG”: the binding signal was 8110 fluorescence intensity (a.u.).

As for “CACGCCACCATTCGCTGTCGATCTCTGCGTGCGTCTTTGACGGAGTCACCTAGTGCAG”, the binding signal is 8930 fluorescence intensity (a.u.).

Turning to “CTGGGGCATCTTCTTCATCAGCTCAACCGTGTTCGCACGCCGGAGTCACCTAGTGCAG”, the binding signal was 14100 fluorescence intensity (a.u.).

As for “CTTCCCTTTCACAACGATCGACTTCTGTTCGGTTTTAACTCGGAGTCACCTAGTGCAG”, the binding signal was 10300 fluorescence intensity (a.u.).

Turning to “TTTTTCGTTTCCTTTCCGTGTTCTTTTTTTTTTCTTCCATCGGAGTCACCTAGTGCAG”, the binding signal was 10100 fluorescence intensity (a.u.).

On to “CCATGTATCACACTCCGTTCATATATTCCTGGGCTGTATTCGGAGTCACCTAGTGCAG”, for which the binding signal is 8450 fluorescence intensity (a.u.).

Regarding “TGTCGCTGTGTGCCTCTCTCTCTCTCTCTCCCGTGTCTCTCGGAGTCACCTAGTGCAG”, the binding signal is 8630 fluorescence intensity (a.u.).

As to “TCATAATCCATCTTGTTAAGTGCTTGTGTTCAGATCAATGCGGAGTCACCTAGTGCAG”, the binding signal was 8170 fluorescence intensity (a.u.).

For “ACTTATAGCTACTGTTCATCGATCGTCCATGACTCCATGCCGGAGTCACCTAGTGCAG”, the binding signal is 11400 fluorescence intensity (a.u.).

As to “TGACTGTACATCCTAGGCCTAGGGCACTTTGTTTTTTTTACGGAGTCACCTAGTGCAG”, the binding signal was 8990 fluorescence intensity (a.u.).

Turning to “GTAAAGCCCATCTTCTGTTGTGTTCATCTTGCTCGTTCCTCGGAGTCACCTAGTGCAG”, the binding signal was 9400 fluorescence intensity (a.u.).

Turning to “ACACACTCGCACAAGTTTAGCGACCGCTGGTGCACTTCACCGGAGTCACCTAGTGCAG”, the binding signal was 8850 fluorescence intensity (a.u.).

As to “ACCCATGTGCCCATGCCCGACCCATGCCCGAAAGGGCTATCGGAGTCACCTAGTGCAG”, the binding signal is 8520 fluorescence intensity (a.u.).

In the case of “GATTTTGAGTTTTTACTTGCAACATTTTACCACTCGTCTTCGGAGTCACCTAGTGCAG”, the binding signal is 14000 fluorescence intensity (a.u.).
